Values from PubChem BioAssay AID1259254 (NCATS, 2017).
The whole screen tested about 59,000 reagents; this is an unselected part. In the full data, about 1,550 (2.6%) were called active. 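G2 share is only a proxy for re-replication; each gene was hit by three separate siRNAs, and active genes were retested.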 Unmarked entries are inactive. Reagents against one gene are numbered here. Not all columns of the deposit are shown. The record does not give: the amount of reagent.

Test: 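Finding genes that stop cells copying their DNA twice in one cycle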 (primary screen)
System: human HCT116 colorectal cancer cells
Reagent: single siRNA against human genes
Timing: 3 days
Detection: 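Imaged Hoechst DNA stain sorts each cell into a cycle phase by DNA amount; per plate, G2 fraction set to 0% for non-targeting and 100% for GMNN siRNA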
Scale: G2 robust z-score and G2 cells, % of GMNN control: higher = more G2 cells, more excess DNA replication
Rule for the call: 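An siRNA counts as active if its G2 robust z-score lies at least 5 MADs above the screen median; here such calls match roughly 38% of GMNN control or more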

The opening 2 records, ahead of the listing:
INTS6L #1 | G2 robust z-score: -0.256; G2 cells, % of GMNN control: 1.17
INTS6L #2 | G2 robust z-score: 1.02; G2 cells, % of GMNN control: 10.2

Results, from the start:
INTS6L #1 | G2 robust z-score: -0.256; G2 cells, % of GMNN control: 1.17
INTS6L #2 | G2 robust z-score: 1.02; G2 cells, % of GMNN control: 10.2
INTS6L #3 | G2 robust z-score: -0.14; G2 cells, % of GMNN control: 1.98
CXorf58 #1 | G2 robust z-score: -0.289; G2 cells, % of GMNN control: 0.931
CXorf58 #2 | G2 robust z-score: 0.505; G2 cells, % of GMNN control: 6.52
CXorf58 #3 | G2 robust z-score: -0.561; G2 cells, % of GMNN control: -0.977
USP6NL #1 | G2 robust z-score: 0.844; G2 cells, % of GMNN control: 8.91
USP6NL #2 | G2 robust z-score: -0.483; G2 cells, % of GMNN control: -0.431
USP6NL #3 | G2 robust z-score: -0.58; G2 cells, % of GMNN control: -1.12
ALMS1P1 #1 | G2 robust z-score: -0.0383; G2 cells, % of GMNN control: 2.7
ALMS1P1 #2 | G2 robust z-score: -0.371; G2 cells, % of GMNN control: 0.358
ALMS1P1 #3 | G2 robust z-score: -0.516; G2 cells, % of GMNN control: -0.666
